Laboratory results as given in patent US7195788B2, “Pesticidal compositions from prunus” (Premier Botanicals, Ltd., priority 2001, dated 2007).
Some results were stated once for a whole list of compounds, not compound by compound.

Tested on: Cytospora chrysosperma
Assay: In vitro mycelia growth of Cytospora chrysosperma on potato dextrose agar containing the test material
Type: cell-based
Details: 10,000 ppm in agar
Method: The effectiveness of Prunus compositions was compared to the effectiveness of synthetic benzaldehyde in stopping or restricting the growth of the Cytospora fungus on potato dextrose agar. The volatile compounds of a Prunus virginiana hydrodistillate were concentrated by counter-flow flash evaporation (i.e. collected from vessel 122 as shown in FIG. 2) to provide a concentrated extract that was further processed by distillation to remove hydrocyanic acid. The resulting extract was analyzed and found to contain 1.2% trans-2-hexenal, 98.5% benzaldehyde, and traces of other compounds originally in the hydrodistillate. This extract was reconstituted in distilled water to provide a solution containing approximately 10,000 ppm of Prunus volatiles. This stock solution was used to prepare a series of agar solutions containing between 0 and 10,000 ppm Prunus volatiles. The Prunus material was blended into the agar after autoclaving and prior to pouring the agar into Petri plates. […] All plates were inoculated with a 5-mm potato dextrose agar plug from a two-week-old culture of C. chrysosperma.

O=Cc1ccccc1 [SB, benzaldehyde]
Duration of inhibition of growth of the fungus: ≥ 14 days
